Primary screen of a compound library

Data taken from ChEMBL document CHEMBL3988442, “University of Dundee, Small-Polar-MMV Screening Library” (2021).

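Phenotypic screen: M. tuberculosis growth, glucose 7H9 medium, 3 days; the read-out is not stated. Concentration: 50 µM. Direction is inferred from retests: higher values go with more growth inhibition. Of about 69,000 compounds tested this way, about 760 (1.1%) reached 50% or more in at least one test.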

Values are the deposited “Percent Effect”, in %. How 0% and 100% were set is not recorded. Most values in the screen are low, and negative values occur. This is an unselected part of the compounds tested. Two or more numbers in one place are separate tests of the same structure; such repeats can differ widely.

For CNc1cc(C2CN(CC(=O)N(C)C)CCO2)nc(C)n1 (centres undefined) the result was 10.08%.
For CCN1CC2(CCC1=O)CCN(Cc1cccc(C#N)c1)CC2 the result was 25.22%.
For CC1(C2CCN(CC(N)=O)CC2)CN(Cc2ccccc2)C(=O)CO1 (centres undefined) the result was -20.31%.
For COCCOc1ccc(NC(=O)N(CCO)C2CC2)cn1 the result was 10.76%.
For COc1ccc(CN(C)[C@@H]2CN(S(=O)(=O)C(C)C)C[C@H]2O)cc1 the result was 5.345%.
For O=C1OCCN1CCS(=O)(=O)c1cccc(Br)c1 the result was -7.049%.
For [H][C@@]12CCCO[C@]1([H])[C@H](NC(=O)C1CC1)CN2Cc1cccc(C#N)c1 the result was 1.231%.
For CC(C)(O)CCc1ccc(C(=O)N2CCN(CC3CCCC3)CC2)cc1 the result was -22.25%.
For CC1CN(Cc2ccccn2)CCN1c1ccc2nncn2n1 (centres undefined) the result was 21.36%.
For [H][C@@]12CCN(C(=O)Cc3csc4ccccc34)C[C@]1([H])OCCNC2=O the result was 11.76%.
For COc1cc(C(=O)NCCCO)cc2occc12 the result was -16.31%.
For O=C1CCOC[C@]2(CN(Cc3ccccc3)C[C@H]2c2ccccc2)N1 the result was -9.645%.
For CN1C(=O)CCC12CCN(Cc1ccco1)CC2 the result was -13.17%.
For Cl.O=C(c1ccccc1Cl)N1CCN(CCc2ccccn2)CC1 the result was 4.579%.
For CCN(CC(=O)NC1(C)CCS(=O)(=O)C1)Cc1ccc(OC)c(F)c1 (centres undefined) the result was -0.1835%.
For NC[C@H]1CC[C@H](C(NC(=O)CC2CCCC2)c2ccccn2)CC1 (some centres undefined) the result was -19.24%.
For CCc1nc(Cn2c(=O)n(CC)c3ccccc32)no1 the result was -10.43%.
For CCC(CNC(=O)NCc1cc[nH]n1)N1CCCC1 (centres undefined) the result was 4.768% and -6.214%.
For O=C(NCc1ccc(-n2cncn2)nc1)c1cc(Cl)c2c(c1)OCCO2 the result was -34.09%.
For Cc1ccccc1N1CCN(C(=O)CC(C)C)CC1 the result was -11.77%.
For CCn1ncc(Nc2[nH]cnc3nncc2-3)c1C the result was -1.328% and -3.793%.
For CCS(=O)(=O)N1CCC(Oc2ccc(C#N)cc2)CC1 the result was -11.36%.
For Cc1cc(C)c(C(=O)N2CCC3(CCCN(CC(C)(C)C)C3)C2)[nH]1 (centres undefined) the result was -13.45%.
For CC1(c2ccc(Br)cc2)CC(=O)N(CC(N)=O)C1=O (centres undefined) the result was -43.17%.
For O=C(CSc1ccccn1)N1CCC(OCc2cccnc2)CC1 the result was 9.442%.
For Nc1ccnc(N2CCC(CCc3ccccc3)(C(=O)O)CC2)n1 the result was -18.82%.
For [H][C@]12CN(C(=O)COC3CCCC3)C[C@@]1([H])OCCN(S(C)(=O)=O)C2 the result was -1.8% and -0.7175%.
For CCc1c(C)nn2c(O)cc(C3CCN(C(=O)C4CC4)C3)nc12 (centres undefined) the result was -2.355%.
For Cc1oc(-c2ccco2)nc1CC(=O)N1CCC(C(O)C(F)(F)F)CC1 (centres undefined) the result was 4.526%.
For Cc1ccc(-c2ncc(C(=O)N3CCN4CCCCC4C3)c(O)n2)cc1 (centres undefined) the result was 3.781% and -12.82%.
For COc1cccn(C(C)C(=O)NC2CCCC2)c1=O (centres undefined) the result was -0.8502%.
For CCC(C)n1cnc(S(=O)(=O)N(C)C)c1 (centres undefined) the result was -18.51%.
For O=C(O)C(F)(F)F.O=C(O)C(F)(F)F.O=C(O)C(F)(F)F.[H][C@@]12CN(Cc3nccs3)C[C@H](C(=O)Nc3cccnc3)[C@]1([H])CCO2 the result was -27.52%.

The last 2 entries again:

{"compound": "CCC(C)n1cnc(S(=O)(=O)N(C)C)c1", "stereo": "centres undefined", "percent effect": -18.51}
{"compound": "O=C(O)C(F)(F)F.O=C(O)C(F)(F)F.O=C(O)C(F)(F)F.[H][C@@]12CN(Cc3nccs3)C[C@H](C(=O)Nc3cccnc3)[C@]1([H])CCO2", "percent effect": -27.52}